Source: the supplement of paper PMC10849652
This is one part of the list.

Chains of the proteins cited; added tags and fusions are not shown. Lines headed by an entry give the natural chain unless they say otherwise; changes in a name come on top.
UniProt P32856: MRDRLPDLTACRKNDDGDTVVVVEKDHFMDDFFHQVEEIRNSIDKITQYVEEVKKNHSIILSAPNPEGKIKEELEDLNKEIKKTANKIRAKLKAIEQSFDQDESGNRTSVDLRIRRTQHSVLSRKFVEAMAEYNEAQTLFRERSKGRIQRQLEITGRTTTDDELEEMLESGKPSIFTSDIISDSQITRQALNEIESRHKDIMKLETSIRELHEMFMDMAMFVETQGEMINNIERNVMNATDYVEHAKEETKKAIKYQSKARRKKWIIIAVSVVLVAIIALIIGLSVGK

Legend:
Test in all cases: log2 fold change, soluble protein after heating vs DMSO (PISA); higher = thermal stabilisation; K562 cells, 10 uM, 30 min; active = over 0.2 and 3.5 SD of the protein, either way, in both replicates (recomputed)
defactinib = compound: CNC(=O)c1ccc(Nc2ncc(C(F)(F)F)c(NCc3nccnc3N(C)S(C)(=O)=O)n2)cc1 [defactinib]
Outline: (§1)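 Quantification of soluble protein used TMTpro 16plex LC-MS/MS, with channel sums equalised. Samples were the supernatant after 21,000xg for 90 min of pooled aliquots from K562 cells (2×10^6 cells/mL) treated with 10 μM compound for 30 min, heated for 3 min over 48°C-58°C, and extracted in PBS with 0.5% NP-40 at 4°C. Values, from duplicates, describe thermal stability against control samples on a log2 fold-change scale.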

rucaparib = compound: CNCc1ccc(-c2[nH]c3cc(F)cc4c3c2CCNC4=O)cc1 [rucaparib]
Outline: as §1

[1] = compound: CNc1nc(-c2ccc3c(N)n[nH]c3c2)cc(N2C[C@@H](C(=O)NC3CCCCC3)CC[C@H]2C)n1
Outline: as §1

encorafenib = compound: COC(=O)N[C@@H](C)CNc1nccc(-c2cn(C(C)C)nc2-c2cc(Cl)cc(NS(C)(=O)=O)c2F)n1 [encorafenib]
Outline: as §1

[2] = compound: COC(=O)[C@H](CCSC)NC(=O)C1=C(C=C(C=C1)NC[C@H](CS)N)C2=CC=CC=C2
Outline: as §1

[3] = compound: COC1=CC=C(C=C1)CN2C=CC3=C2C=C(C=C3)C(=O)NO
Outline: as §1

filanesib = compound: CON(C)C(=O)N1N=C(c2cc(F)ccc2F)S[C@@]1(CCCN)c1ccccc1 [filanesib]
Outline: as §1

zotarolimus = compound: CO[C@H]1C[C@@H]2CC[C@@H](C)[C@@](O)(O2)C(=O)C(=O)N2CCCC[C@H]2C(=O)O[C@H]([C@H](C)C[C@@H]2CC[C@H](n3cnnn3)[C@H](OC)C2)CC(=O)[C@H](C)/C=C(\C)[C@@H](O)[C@@H](OC)C(=O)[C@H](C)C[C@H](C)/C=C/C=C/C=C/1C [zotarolimus]
Outline: as §1

idasanutlin = compound: COc1cc(C(=O)O)ccc1NC(=O)[C@@H]1N[C@@H](CC(C)(C)C)[C@](C#N)(c2ccc(Cl)cc2F)[C@H]1c1cccc(Cl)c1F [idasanutlin]
Outline: as §1

alisertib = compound: COc1cc(Nc2ncc3c(n2)-c2ccc(Cl)cc2C(c2c(F)cccc2OC)=NC3)ccc1C(=O)O [alisertib]
Outline: as §1

[4] = compound: COc1cc2nc(-c3cc(F)ccc3O)nc(N[C@@H]3CNC[C@H]3C(C)(C)O)c2cc1OC
Outline: as §1

gefitinib = compound: COc1cc2ncnc(Nc3ccc(F)c(Cl)c3)c2cc1OCCCN1CCOCC1 [gefitinib]
Outline: as §1

[5] = compound: COc1cccc2cc(-c3nc([C@H]4CC[C@H](C(=O)O)CC4)n4ncnc(N)c34)[nH]c12
Outline: as §1

lapatinib = compound: CS(=O)(=O)CCNCc1ccc(-c2ccc3ncnc(Nc4ccc(OCc5cccc(F)c5)c(Cl)c4)c3c2)o1 [lapatinib]
Outline: as §1

pictilisib = compound: CS(=O)(=O)N1CCN(Cc2cc3nc(-c4cccc5[nH]ncc45)nc(N4CCOCC4)c3s2)CC1 [pictilisib]
Outline: as §1

[6] = compound: CS(=O)(=O)c1ccc(-c2cnc(N)c(C(=O)Nc3ccccc3)n2)cc1
Outline: as §1

crizotinib = compound: C[C@@H](Oc1cc(-c2cnn(C3CCNCC3)c2)cnc1N)c1c(Cl)ccc(F)c1Cl [crizotinib]
Outline: as §1

[7] = compound: C[C@@H]1COCCN1C2=NC(=NC(=C2)C3(CC3)S(=O)(=O)C)C4=C5C=CNC5=CC=C4
Outline: as §1

[8] = compound: C[C@H](C1=CC=C(C=C1)C(=O)NC2=C3C=CNC3=NC=C2)N
Outline: as §1

duvelisib = compound: C[C@H](Nc1ncnc2nc[nH]c12)c1cc2cccc(Cl)c2c(=O)n1-c1ccccc1 [duvelisib]
Outline: as §1

gandotinib = compound: Cc1cc(Nc2cc(CN3CCOCC3)c3nc(C)c(Cc4ccc(Cl)cc4F)n3n2)n[nH]1 [gandotinib]
Outline: as §1

tozasertib = compound: Cc1cc(Nc2cc(N3CCN(C)CC3)nc(Sc3ccc(NC(=O)C4CC4)cc3)n2)n[nH]1 [tozasertib]
Outline: as §1

[9] = compound: Cc1cc(SCc2sc(-c3ccc(C(F)(F)F)cc3)nc2C)ccc1OCC(=O)O
Outline: as §1

doramapimod = compound: Cc1ccc(-n2nc(C(C)(C)C)cc2NC(=O)Nc2ccc(OCCN3CCOCC3)c3ccccc23)cc1 [doramapimod]
Outline: as §1

ispinesib = compound: Cc1ccc(C(=O)N(CCCN)[C@@H](c2nc3cc(Cl)ccc3c(=O)n2Cc2ccccc2)C(C)C)cc1 [ispinesib]
Outline: as §1

bafetinib = compound: Cc1ccc(NC(=O)c2ccc(CN3CC[C@H](N(C)C)C3)c(C(F)(F)F)c2)cc1Nc1nccc(-c2cncnc2)n1 [bafetinib]
Outline: as §1

[10] = compound: Cc1cccc(CC(=O)N2CCc3c2ccc(-c2cn(C)c4ncnc(N)c24)c3F)n1
Outline: as §1

nilotinib = compound: Cc1cn(-c2cc(NC(=O)c3ccc(C)c(Nc4nccc(-c5cccnc5)n4)c3)cc(C(F)(F)F)c2)cn1 [nilotinib]
Outline: as §1

[11] = compound: Cc1nc(Nc2n[nH]c3c2CN(C(=O)N[C@H](CN(C)C)c2ccccc2)C3(C)C)c2sccc2n1
Outline: as §1

dasatinib = compound: Cc1nc(Nc2ncc(C(=O)Nc3c(C)cccc3Cl)s2)cc(N2CCN(CCO)CC2)n1 [dasatinib]
Outline: as §1

[12] = compound: Cc1ncc(-c2ccnc(Nc3ccc(S(C)(=O)=O)cc3)n2)n1C(C)C
Outline: as §1

[13] = compound: Cc1sc2c(c1C)C(c1ccc(Cl)cc1)=N[C@@H](CC(=O)OC(C)(C)C)c1nnc(C)n1-2
Outline: as §1

[14] = compound: Cn1cc(-c2ccc3c(c2)CCN3C(=O)Cc2cccc(C(F)(F)F)c2)c2c(N)ncnc21
Outline: as §1

[15] = compound: Cn1cc(-c2ccc3nnc(C(F)(F)c4ccc5ncccc5c4)n3n2)cn1
Outline: as §1

tipifarnib = compound: Cn1cncc1[C@@](N)(c1ccc(Cl)cc1)c1ccc2c(c1)c(-c1cccc(Cl)c1)cc(=O)n2C [tipifarnib]
Outline: as §1

mubritinib = compound: FC(F)(F)c1ccc(/C=C/c2nc(COc3ccc(CCCCn4ccnn4)cc3)co2)cc1 [mubritinib]
Outline: as §1

[16] = compound: NC(=O)Nc1cc(-c2cccc(F)c2)sc1C(=O)N[C@H]1CCCNC1
Outline: as §1

[17] = compound: NC(=O)c1cnc(N[C@@H]2CCCC[C@@H]2N)nc1Nc1cccc(-n2nccn2)c1
Outline: as §1

[18] = compound: NC1(c2ccc(-c3nc4ccn5c(=O)[nH]nc5c4cc3-c3ccccc3)cc2)CCC1
Outline: as §1

[19] = compound: NCC(=O)Nc1ccc(-n2nc(C(F)(F)F)cc2-c2ccc3c(ccc4ccccc43)c2)cc1
Outline: as §1

entinostat = compound: Nc1ccccc1NC(=O)c1ccc(CNC(=O)OCc2cccnc2)cc1 [entinostat]
Outline: as §1

vorinostat = compound: O=C(CCCCCCC(=O)Nc1ccccc1)NO [vorinostat]
Outline: as §1

citarinostat = compound: O=C(CCCCCCNC(=O)c1cnc(N(c2ccccc2)c2ccccc2Cl)nc1)NO [citarinostat]
Outline: as §1

silmitasertib = compound: O=C(O)c1ccc2c(c1)nc(Nc1cccc(Cl)c1)c1ccncc12 [silmitasertib]
Outline: as §1

[20] = compound: O=C1NC(=O)C(c2cnc3ccccn23)=C1c1cn2c3c(cc(F)cc13)CN(C(=O)N1CCCCC1)CC2
Outline: as §1

[21] = compound: c1cc(OCCN2CCCCC2)cc(-c2n[nH]c3ccc(-c4nnc[nH]4)cc23)c1
Outline: as §1

[22] = compound: c1ccc([C@@H]2C[C@H]2NC2CCNCC2)cc1
Outline: as §1

entospletinib = compound: c1cn2cc(-c3ccc4cn[nH]c4c3)nc(Nc3ccc(N4CCOCC4)cc3)c2n1 [entospletinib]
Outline: as §1

Measured: log2 fold change

STX2 (UniProt P32856)
inactive: defactinib -0.113 | rucaparib -0.034 | [1] -0.108 | encorafenib -0.004 | [2] 0.103 | [3] -0.088 | filanesib -0.018 | zotarolimus -0.044 | idasanutlin 0.021 | alisertib -0.09 | [4] 0.214 | gefitinib 0.031 | [5] -0.07 | lapatinib -0.032 | pictilisib 0.127 | [6] -0.002 | crizotinib 0.08 | [7] 0.053 | [8] -0.045 | duvelisib 0.004 | gandotinib -0.005 | tozasertib -0.023 | [9] 0.074 | doramapimod 0.072 | ispinesib 0.248 | bafetinib -0.044 | [10] -0.041 | nilotinib -0.048 | [11] -0.174 | dasatinib -0.23 | [12] -0.041 | [13] 0.082 | [14] 0.057 | [15] -0.022 | tipifarnib 0.133 | mubritinib 0.066 | [16] 0.014 | [17] 0.012 | [18] -0.023 | [19] -0.085 | entinostat 0.032 | vorinostat -0.061 | citarinostat -0.018 | silmitasertib 0.046 | [20] -0.036 | [21] 0.122 | [22] 0.108 | entospletinib 0.014
